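Human melanoma cell lines in 1,536-well plates were treated with two drugs together for 72 h, then fixed, stained and imaged. The read-out is the fraction of cleaved-PARP-positive nuclei, in % of that fraction in the DMSO control; 200 means twice the control level of this apoptosis marker. Concentrations were fixed for each drug; these are the higher of two levels. These are primary screening values without error estimates. The marker varies much from line to line, for technical or biological reasons.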
An unselected part of the screen is shown.
An entry leaves out what has no value listed here.
A dash means that no value is listed here.

Compounds and concentrations:
darinaparsin, 2 µM: C[As](C)SC[C@H](NC(=O)CC[C@H](N)C(=O)O)C(=O)NCC(=O)O
Src-I1, 10 µM: COc1cc2ncnc(Nc3ccc(Oc4ccccc4)cc3)c2cc1OC
GSK650394, 0.8 µM: O=C(O)c1ccc(-c2c[nH]c3ncc(-c4ccccc4)cc23)cc1C1CCCC1
sunitinib, 2 µM: CCN(CC)CCNC(=O)c1c(C)[nH]c(/C=C2\C(=O)Nc3ccc(F)cc32)c1C
GW2580, 5 µM: COc1ccc(COc2ccc(Cc3cnc(N)nc3N)cc2OC)cc1
decitabine, 0.5 µM: Nc1ncn([C@H]2C[C@H](O)[C@@H](CO)O2)c(=O)n1
cisplatin, 8 µM: N.N.[Cl][Pt][Cl]
cediranib, 2 µM: COc1cc2c(Oc3ccc4[nH]c(C)cc4c3F)ncnc2cc1OCCCN1CCCC1
temozolomide, 10 µM: Cn1nnc2c(C(N)=O)ncn2c1=O
docetaxel, 0.0005 µM: CC(=O)O[C@@]12CO[C@@H]1C[C@H](O)[C@@]1(C)C(=O)[C@H](O)C3=C(C)[C@@H](OC(=O)[C@H](O)[C@@H](NC(=O)OC(C)(C)C)c4ccccc4)C[C@@](O)([C@@H](OC(=O)c4ccccc4)[C@H]21)C3(C)C
CHIR-265, 0.4 µM: Cn1c(Nc2ccc(C(F)(F)F)cc2)nc2cc(Oc3ccnc(-c4ncc(C(F)(F)F)[nH]4)c3)ccc21
fingolimod, 10 µM: CCCCCCCCc1ccc(CCC(N)(CO)CO)cc1
SNS-314, 0.004 µM: O=C(Nc1cccc(Cl)c1)Nc1ncc(CCNc2ncnc3ccsc23)s1
OSU-03012, 5 µM: NCC(=O)Nc1ccc(-n2nc(C(F)(F)F)cc2-c2ccc3c(ccc4ccccc43)c2)cc1
VX-702, 2 µM: NC(=O)c1ccc(N(C(N)=O)c2c(F)cccc2F)nc1-c1ccc(F)cc1F
JZL184, 5 µM: O=C(Oc1ccc([N+](=O)[O-])cc1)N1CCC(C(O)(c2ccc3c(c2)OCO3)c2ccc3c(c2)OCO3)CC1
SU6656, 2 µM: CN(C)S(=O)(=O)c1ccc2c(c1)/C(=C/c1cc3c([nH]1)CCCC3)C(=O)N2
BI-78D3, 1 µM: O=c1[nH]nc(Sc2ncc([N+](=O)[O-])s2)n1-c1ccc2c(c1)OCCO2
tamatinib, 2 µM: COc1cc(Nc2ncc(F)c(Nc3ccc4c(n3)NC(=O)C(C)(C)O4)n2)cc(OC)c1OC

{"combination": "OSU-03012 + sunitinib", "LB2518-MEL": 152, "WM115": 91.4, "MeWo": 226, "COLO 800": 112, "LOX IMVI": 128}
{"combination": "decitabine + tamatinib", "LB2518-MEL": 446, "WM115": 252, "MeWo": 157, "COLO 800": 70.3, "LOX IMVI": 721}
{"combination": "cisplatin + SU6656", "LB2518-MEL": 142, "WM115": 309, "MeWo": 84.6, "COLO 800": 75.4, "LOX IMVI": 265}
{"combination": "JZL184 + Src-I1", "LB2518-MEL": 70.4, "A375": 132, "WM115": 58.7, "MeWo": 61.3, "COLO 800": 321, "LOX IMVI": 118}
{"combination": "fingolimod + BI-78D3", "LB2518-MEL": 10800, "A375": 162, "WM115": 1820, "MeWo": 645, "COLO 800": 539, "LOX IMVI": 440}
{"combination": "OSU-03012 + darinaparsin", "LB2518-MEL": 64.3, "WM115": 145, "MeWo": 85.5, "COLO 800": 98.3, "LOX IMVI": 119}
{"combination": "GW2580 + cisplatin", "LB2518-MEL": 108, "A375": 211, "WM115": 51.0, "MeWo": 76.9, "COLO 800": 205, "LOX IMVI": 72.4}
{"combination": "sunitinib + temozolomide", "LB2518-MEL": 119, "A375": 41.7, "WM115": 226, "MeWo": 63.7, "COLO 800": 62.7, "LOX IMVI": 36.7}
{"combination": "cediranib + OSU-03012", "LB2518-MEL": 327, "WM115": 134, "MeWo": 46.6, "COLO 800": 80.4, "LOX IMVI": 87.8}
{"combination": "BI-78D3 + tamatinib", "LB2518-MEL": 71.4, "WM115": 228, "MeWo": 110, "COLO 800": 196, "LOX IMVI": 220}
{"combination": "Src-I1 + GSK650394", "LB2518-MEL": 116, "A375": 93.7, "WM115": 228, "MeWo": 209, "COLO 800": 81.4, "LOX IMVI": 123}
{"combination": "CHIR-265 + BI-78D3", "LB2518-MEL": 1060, "A375": 135, "WM115": 469, "MeWo": 86.4, "COLO 800": 77.3, "LOX IMVI": 95.7}
{"combination": "Src-I1 + SU6656", "LB2518-MEL": 136, "A375": 47.4, "WM115": 113, "MeWo": 122, "COLO 800": 289, "LOX IMVI": 31.0}
{"combination": "cediranib + SU6656", "LB2518-MEL": 69.1, "WM115": 221, "MeWo": 95.1, "COLO 800": 242, "LOX IMVI": 87.8}
{"combination": "temozolomide + OSU-03012", "LB2518-MEL": 82.5, "WM115": 139, "MeWo": 94.9, "COLO 800": 212, "LOX IMVI": 81.5}
{"combination": "docetaxel + darinaparsin", "A375": 218, "WM115": 908, "MeWo": 1010, "COLO 800": 480, "LOX IMVI": 221}
{"combination": "VX-702 + SNS-314", "LB2518-MEL": 57.3, "WM115": 136, "MeWo": 231, "COLO 800": 197, "LOX IMVI": 177}
{"combination": "darinaparsin + CHIR-265", "LB2518-MEL": 839, "A375": 79.5, "WM115": 1500, "MeWo": 186, "COLO 800": 71.0, "LOX IMVI": 105}
{"combination": "GW2580 + OSU-03012", "LB2518-MEL": 36.8, "A375": 606, "WM115": 25.5, "MeWo": 29.1, "COLO 800": 382, "LOX IMVI": 147}
{"combination": "VX-702 + Src-I1", "LB2518-MEL": 64.4, "A375": 76.6, "WM115": 66.2, "MeWo": 86.0, "COLO 800": 44.9, "LOX IMVI": 92.0}
{"combination": "Src-I1 + OSU-03012", "LB2518-MEL": 45.8, "A375": 175, "WM115": 659, "MeWo": 55.6, "COLO 800": 48.6, "LOX IMVI": 79.5}

2 of the entries, repeated:

Combination	LB2518-MEL	A375	WM115	MeWo	COLO 800	LOX IMVI
temozolomide + OSU-03012	82.5	-	139	94.9	212	81.5
cisplatin + SU6656	142	-	309	84.6	75.4	265

Data from the primary screen of doi:10.1371/journal.pone.0140310, rounded.